Results are given in words; binding and its absence hold for the method and conditions named. In cells and extracts the contact can be indirect. Some binding calls cover weakened binding; strength is not graded here.
Experiments:
[1] = biological target: mCherry-Flag-F508del-CFTR, rescued to the plasma membrane with VX-661 (UniProt P13569); experiment: co-IP; intact CFBE cells labelled on ice 2 h with anti-Flag M2 (or non-specific IgG) in PBS-CM, then non-denaturing lysis (1% NP-40, 0.01% SDS, 100 mM NaCl); CFTR complexes from the plasma membrane captured on protein G magnetic beads, washed with 200 mM NaCl, 1% NP-40; Western blot; inputs adjusted to equal precipitated wt- and rF508del-CFTR
mCherry-Flag-wt-CFTR = mCherry-Flag-wt-CFTR (UniProt P13569); experiment: as above

Protein sequences, listed by entry. Tags and fused reporters are not part of them. Lines headed by an entry give the natural chain unless they say otherwise; changes in a name come on top. Chains listed by the source or under a name are the forms on record and can include a tag or linker.
UniProt P13569: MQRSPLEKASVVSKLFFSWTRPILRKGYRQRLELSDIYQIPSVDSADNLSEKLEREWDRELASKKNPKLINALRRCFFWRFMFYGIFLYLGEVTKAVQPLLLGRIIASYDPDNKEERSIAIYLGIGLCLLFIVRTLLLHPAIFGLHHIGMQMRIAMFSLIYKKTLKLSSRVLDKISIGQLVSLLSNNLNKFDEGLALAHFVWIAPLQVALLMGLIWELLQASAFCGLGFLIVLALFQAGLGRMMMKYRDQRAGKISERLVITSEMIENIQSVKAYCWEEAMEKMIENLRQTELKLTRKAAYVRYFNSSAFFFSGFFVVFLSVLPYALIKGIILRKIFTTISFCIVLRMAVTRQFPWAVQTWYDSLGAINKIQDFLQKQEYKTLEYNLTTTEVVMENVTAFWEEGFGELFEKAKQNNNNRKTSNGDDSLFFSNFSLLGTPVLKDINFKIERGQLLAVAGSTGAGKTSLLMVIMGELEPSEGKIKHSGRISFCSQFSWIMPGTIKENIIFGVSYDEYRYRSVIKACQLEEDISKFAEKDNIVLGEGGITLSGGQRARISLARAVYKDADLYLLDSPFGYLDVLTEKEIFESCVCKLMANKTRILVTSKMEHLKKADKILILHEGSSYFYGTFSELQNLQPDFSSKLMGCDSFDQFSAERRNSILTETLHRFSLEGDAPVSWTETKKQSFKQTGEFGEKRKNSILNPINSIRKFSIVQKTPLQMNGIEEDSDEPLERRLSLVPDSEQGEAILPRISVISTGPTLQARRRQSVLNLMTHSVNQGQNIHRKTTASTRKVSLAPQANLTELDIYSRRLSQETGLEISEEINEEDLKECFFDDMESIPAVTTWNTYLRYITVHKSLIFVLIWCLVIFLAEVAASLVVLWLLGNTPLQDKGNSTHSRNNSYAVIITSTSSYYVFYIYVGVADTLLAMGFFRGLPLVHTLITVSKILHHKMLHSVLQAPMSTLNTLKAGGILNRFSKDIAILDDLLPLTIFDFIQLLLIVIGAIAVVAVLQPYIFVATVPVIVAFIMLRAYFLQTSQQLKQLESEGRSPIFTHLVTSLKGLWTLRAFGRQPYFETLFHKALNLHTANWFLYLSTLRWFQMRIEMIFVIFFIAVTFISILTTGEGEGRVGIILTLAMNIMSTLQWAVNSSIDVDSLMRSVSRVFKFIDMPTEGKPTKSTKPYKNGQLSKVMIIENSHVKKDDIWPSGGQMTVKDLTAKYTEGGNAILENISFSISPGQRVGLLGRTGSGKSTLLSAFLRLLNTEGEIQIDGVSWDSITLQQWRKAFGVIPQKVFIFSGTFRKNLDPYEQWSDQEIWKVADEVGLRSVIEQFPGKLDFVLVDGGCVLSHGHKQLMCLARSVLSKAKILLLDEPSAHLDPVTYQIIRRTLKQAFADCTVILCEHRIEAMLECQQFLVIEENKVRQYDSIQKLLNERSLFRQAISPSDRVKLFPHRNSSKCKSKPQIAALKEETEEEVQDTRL
mCherry-Flag-F508del-CFTR, rescued to the plasma membrane with VX-661 (P13569, form named): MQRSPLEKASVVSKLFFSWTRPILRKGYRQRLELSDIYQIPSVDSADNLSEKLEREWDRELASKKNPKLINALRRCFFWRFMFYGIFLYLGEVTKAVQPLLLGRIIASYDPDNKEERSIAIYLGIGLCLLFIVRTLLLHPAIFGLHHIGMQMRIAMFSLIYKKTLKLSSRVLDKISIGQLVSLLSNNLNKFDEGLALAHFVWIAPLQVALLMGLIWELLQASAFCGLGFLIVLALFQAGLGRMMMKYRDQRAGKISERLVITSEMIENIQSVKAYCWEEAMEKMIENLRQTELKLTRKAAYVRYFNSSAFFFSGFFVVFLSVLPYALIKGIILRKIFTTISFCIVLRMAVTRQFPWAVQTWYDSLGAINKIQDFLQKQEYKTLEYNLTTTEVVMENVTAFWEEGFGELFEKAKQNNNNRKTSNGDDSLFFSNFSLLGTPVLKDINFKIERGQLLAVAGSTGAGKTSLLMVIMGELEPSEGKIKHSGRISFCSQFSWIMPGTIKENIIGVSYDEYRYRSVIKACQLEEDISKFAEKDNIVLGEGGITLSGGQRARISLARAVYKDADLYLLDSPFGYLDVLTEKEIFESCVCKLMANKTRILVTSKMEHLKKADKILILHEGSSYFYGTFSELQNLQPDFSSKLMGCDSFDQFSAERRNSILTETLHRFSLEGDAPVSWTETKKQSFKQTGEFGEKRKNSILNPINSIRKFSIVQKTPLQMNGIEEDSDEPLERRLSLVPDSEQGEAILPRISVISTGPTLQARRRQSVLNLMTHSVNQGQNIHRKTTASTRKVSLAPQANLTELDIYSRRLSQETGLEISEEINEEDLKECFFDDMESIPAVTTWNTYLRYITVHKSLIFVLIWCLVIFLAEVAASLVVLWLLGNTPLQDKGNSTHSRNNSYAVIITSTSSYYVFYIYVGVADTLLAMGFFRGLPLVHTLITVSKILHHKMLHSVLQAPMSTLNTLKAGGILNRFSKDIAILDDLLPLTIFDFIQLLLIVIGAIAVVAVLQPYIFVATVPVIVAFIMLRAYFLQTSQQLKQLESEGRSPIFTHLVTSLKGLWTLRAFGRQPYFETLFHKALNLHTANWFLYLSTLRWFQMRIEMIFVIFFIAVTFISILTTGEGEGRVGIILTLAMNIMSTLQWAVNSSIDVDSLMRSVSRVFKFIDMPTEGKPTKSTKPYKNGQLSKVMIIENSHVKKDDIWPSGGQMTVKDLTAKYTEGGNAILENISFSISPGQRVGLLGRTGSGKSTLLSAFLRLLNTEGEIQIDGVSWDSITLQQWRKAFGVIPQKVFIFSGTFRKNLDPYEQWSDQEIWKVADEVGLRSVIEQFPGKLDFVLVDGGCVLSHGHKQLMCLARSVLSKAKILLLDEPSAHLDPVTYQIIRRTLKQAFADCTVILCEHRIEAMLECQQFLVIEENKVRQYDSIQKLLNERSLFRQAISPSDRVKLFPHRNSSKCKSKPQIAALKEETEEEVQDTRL
UniProt P46937: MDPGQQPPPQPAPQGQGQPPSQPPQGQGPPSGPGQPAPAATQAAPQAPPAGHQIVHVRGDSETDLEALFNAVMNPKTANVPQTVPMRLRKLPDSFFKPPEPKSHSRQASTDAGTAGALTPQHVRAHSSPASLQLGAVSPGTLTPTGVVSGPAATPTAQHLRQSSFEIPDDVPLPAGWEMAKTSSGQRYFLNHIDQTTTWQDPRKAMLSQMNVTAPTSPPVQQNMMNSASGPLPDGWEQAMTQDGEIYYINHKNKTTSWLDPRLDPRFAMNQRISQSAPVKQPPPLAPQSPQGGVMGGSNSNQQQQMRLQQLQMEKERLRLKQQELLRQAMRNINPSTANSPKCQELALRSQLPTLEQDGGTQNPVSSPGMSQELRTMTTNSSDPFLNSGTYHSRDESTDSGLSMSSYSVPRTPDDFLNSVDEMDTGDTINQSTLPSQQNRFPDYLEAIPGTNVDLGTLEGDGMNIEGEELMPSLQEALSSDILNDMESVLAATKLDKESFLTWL
UniProt P07947: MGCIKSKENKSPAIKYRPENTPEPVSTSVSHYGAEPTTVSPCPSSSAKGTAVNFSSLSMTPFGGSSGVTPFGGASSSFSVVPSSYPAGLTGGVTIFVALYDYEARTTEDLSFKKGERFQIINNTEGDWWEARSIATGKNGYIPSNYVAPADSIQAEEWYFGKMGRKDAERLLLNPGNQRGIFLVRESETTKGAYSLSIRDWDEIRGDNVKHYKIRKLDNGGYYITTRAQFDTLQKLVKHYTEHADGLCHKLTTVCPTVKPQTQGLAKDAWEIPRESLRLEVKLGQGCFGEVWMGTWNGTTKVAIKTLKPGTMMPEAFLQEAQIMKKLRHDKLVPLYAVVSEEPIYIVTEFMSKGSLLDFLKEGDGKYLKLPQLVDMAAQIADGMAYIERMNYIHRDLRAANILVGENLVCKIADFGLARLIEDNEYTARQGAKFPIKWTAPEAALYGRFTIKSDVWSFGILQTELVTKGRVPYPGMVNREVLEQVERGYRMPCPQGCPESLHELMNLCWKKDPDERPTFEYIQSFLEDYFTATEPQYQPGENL

Row | Substance | binding [1] | binding (mCherry-Flag-wt-CFTR)
1 | YES-associated protein 1 (YAP1) (from UniProt P46937 1-504) | binds | no binding
2 | Yamaguchi sarcoma viral oncogene homolog 1 (YES1) (from UniProt P07947 1-543) (enzyme) |  | no binding

— publication PMC10296715
